By IC50 is commonly meant the concentration at which inhibition is half-maximal. High values mean a need for much substance, low ones inhibition by little substance.

The series can be described thus: in vitro. The settings on record: human. As to the method:
Further perspectives of their mechanisms of action were carried.
The preliminary in vitro antitumor investigation of our novel potential anticancer candidates was carried out by NCI, MD, USA (www.dtp.nci.nih.gov). […] Moreover, the safety profile of 4e & 4f at normal cells were evaluated.

`CN[C@@H]1C[C@H]2O[C@@](C)([C@@H]1OC)n1c3ccccc3c3c4c(c5c6ccccc6n2c5c31)C(=O)NC4` [Staurosporine, reference compound] yielded an IC50 of 23 µM.

The record behind these values is PMC10620772, “Design, synthesis, and biological evaluation of new pyrimidine-5-carbonitrile derivatives as novel anti-cancer, dual EGFR^WT/COX-2 inhibitors with docking studies” (RSC Advances, 2023).
